The source of these data is article PMC3477315.

Amino acid sequences for entries named in this document (tags omitted). A change or cut given only in a name is not applied to a line headed by its entry.
UniProt Q14790: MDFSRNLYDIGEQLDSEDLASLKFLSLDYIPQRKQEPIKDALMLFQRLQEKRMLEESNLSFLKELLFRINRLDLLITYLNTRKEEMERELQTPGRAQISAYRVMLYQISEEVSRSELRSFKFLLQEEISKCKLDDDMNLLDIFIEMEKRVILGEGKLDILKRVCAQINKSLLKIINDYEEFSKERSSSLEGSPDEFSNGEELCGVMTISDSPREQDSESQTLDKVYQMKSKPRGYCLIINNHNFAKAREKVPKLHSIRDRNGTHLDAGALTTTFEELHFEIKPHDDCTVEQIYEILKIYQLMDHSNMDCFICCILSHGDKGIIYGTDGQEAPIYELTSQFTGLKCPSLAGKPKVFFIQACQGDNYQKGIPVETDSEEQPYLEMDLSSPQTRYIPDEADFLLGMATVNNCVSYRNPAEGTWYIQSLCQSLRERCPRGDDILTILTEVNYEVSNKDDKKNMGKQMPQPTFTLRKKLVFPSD

These are yes or no findings as the source states them, for the method shown. In cells and extracts the contact can be indirect. Some entries that bind do so weakly or less than the wild type.

For the test, the target named is 35S-labeled IVT procaspase-8 C360A (UniProt Q14790). Kind of test: pull-down; in vitro DISC reconstitution as above; procaspase-8 with itself (DED chain), inferred from the amount of IVT 35S-procaspase-8 recruited to the bead-bound complex.

As for “35S-labeled IVT procaspase-8 C360A (from UniProt Q14790 1-479) (enzyme)”, the binding result was “binds”.
